Part of at least one peptide drawing is inferred or uncertain, most often the ends. Ends that are not written are not given here.
System: chick chorioallantoic membrane
Test: Chorioallantoic membrane assay (angiogenesis)
Assay type: in vivo, chick embryos
Conditions: peptide placed within the tissue

Q: With “YIGSR-NH2 [YIGSR amide, tyrosine-isoleucine-glycine-serine-arginine-amide]” as the substance, how does the “inhibition of blood vessel formation” value read?
A: Its value is “inhibited blood vessels from forming in the region of the peptide”.
